# Data as given in the supplement of paper PMC11264405.
# Legend:
# Test in all cases: minimum inhibitory concentration
# fidaxomicin = compound: CCc1c(Cl)c(O)c(Cl)c(O)c1C(=O)O[C@H]1[C@H](O)[C@H](OC)[C@H](OC/C2=C\C=C\C[C@H](O)/C(C)=C/[C@H](CC)[C@@H](O[C@@H]3OC(C)(C)[C@@H](OC(=O)C(C)C)[C@H](O)[C@@H]3O)/C(C)=C/C(C)=C/C[C@@H]([C@@H](C)O)OC2=O)O[C@@H]1C [fidaxomicin]
# linezolid = compound: CC(=O)NC[C@H]1CN(c2ccc(N3CCOCC3)c(F)c2)C(=O)O1 [linezolid]
# metronidazole = compound: Cc1ncc([N+](=O)[O-])n1CCO [metronidazole]
# vancomycin = compound: CN[C@H](CC(C)C)C(=O)N[C@H]1C(=O)N[C@@H](CC(N)=O)C(=O)N[C@H]2C(=O)N[C@H]3C(=O)N[C@H](C(=O)N[C@H](C(=O)O)c4cc(O)cc(O)c4-c4cc3ccc4O)[C@H](O)c3ccc(c(Cl)c3)Oc3cc2cc(c3O[C@@H]2O[C@H](CO)[C@@H](O)[C@H](O)[C@H]2O[C@H]2C[C@](C)(N)[C@H](O)[C@H](C)O2)Oc2ccc(cc2Cl)[C@H]1O [vancomycin]
# rifampicin = compound: CO[C@H]1/C=C/O[C@@]2(C)Oc3c(C)c(O)c4c(O)c(c(/C=N/N5CCN(C)CC5)c(O)c4c3C2=O)NC(=O)/C(C)=C\C=C\[C@H](C)[C@H](O)[C@@H](C)[C@@H](O)[C@@H](C)[C@H](OC(C)=O)[C@@H]1C [rifampicin]
# meropenem = compound: C[C@@H](O)[C@H]1C(=O)N2C(C(=O)O)=C(S[C@@H]3CN[C@H](C(=O)N(C)C)C3)[C@H](C)[C@H]12 [meropenem]
# imipenem = compound: C[C@@H](O)[C@H]1C(=O)N2C(C(=O)O)=C(SCCNC=N)C[C@H]12 [imipenem]
# tigecycline = compound: CN(C)c1cc(NC(=O)CNC(C)(C)C)c(O)c2c1C[C@H]1C[C@H]3[C@H](N(C)C)C(O)=C(C(N)=O)C(=O)[C@@]3(O)C(O)=C1C2=O [tigecycline]
# clindamycin = compound: CCC[C@@H]1C[C@@H](C(=O)N[C@@H]([C@H]2O[C@H](SC)[C@H](O)[C@@H](O)[C@H]2O)[C@H](C)Cl)N(C)C1 [clindamycin]
Test System,minimum inhibitory concentration (fidaxomicin) [µg/mL],minimum inhibitory concentration (linezolid) [µg/mL],minimum inhibitory concentration (metronidazole) [µg/mL],minimum inhibitory concentration (vancomycin) [µg/mL],minimum inhibitory concentration (rifampicin) [µg/mL],minimum inhibitory concentration (meropenem) [µg/mL],minimum inhibitory concentration (imipenem) [µg/mL],minimum inhibitory concentration (tigecycline) [µg/mL],minimum inhibitory concentration (clindamycin) [µg/mL]
"Clostridioides difficile PCR ribotype 009 isolate #37 (European region: North, country: UK, isolate source: Human, ribotype: 009)",0.06,2,< 0.125,1,< 0.001,2,2,0.06,1
"Clostridioides difficile PCR ribotype 009 isolate #38 (European region: North, country: Sweden, isolate source: Human, ribotype: 009)",0.015,2,< 0.125,0.5,< 0.001,2,2,< 0.03,> 128
"Clostridioides difficile PCR ribotype 009 isolate #40 (European region: South, country: Spain, isolate source: Human, ribotype: 009)",0.06,2,0.25,0.5,< 0.001,4,4,0.06,1
"Clostridioides difficile PCR ribotype 009 isolate #41 (European region: North, country: UK, isolate source: Human, ribotype: 009)",0.06,2,0.25,1,< 0.001,2,2,< 0.03,16
"Clostridioides difficile PCR ribotype 009 isolate #42 (European region: West, country: France, isolate source: Human, ribotype: 009)",0.03,0.25,< 0.125,0.5,< 0.001,4,1,< 0.03,16
"Clostridioides difficile PCR ribotype 009 isolate #295 (European region: South, country: Spain, isolate source: Animal, ribotype: 009)",0.008,2,< 0.125,0.5,< 0.001,4,1,0.06,0.25
"Clostridioides difficile PCR ribotype 010 isolate #43 (European region: North, country: UK, isolate source: Human, ribotype: 010)",0.015,2,0.25,0.5,< 0.001,8,4,< 0.03,> 128
"Clostridioides difficile PCR ribotype 010 isolate #44 (European region: East, country: Romania, isolate source: Human, ribotype: 010)",0.015,2,< 0.125,1,< 0.001,2,1,< 0.03,8
"Clostridioides difficile PCR ribotype 010 isolate #45 (European region: North, country: UK, isolate source: Human, ribotype: 010)",0.06,8,< 0.125,0.5,< 0.001,2,2,0.06,> 128
"Clostridioides difficile PCR ribotype 010 isolate #47 (European region: North, country: Sweden, isolate source: Human, ribotype: 010)",0.03,1,0.25,0.5,< 0.001,4,2,< 0.03,4
"Clostridioides difficile PCR ribotype 010 isolate #48 (European region: East, country: Poland, isolate source: Human, ribotype: 010)",0.03,2,2,0.5,< 0.001,4,1,0.06,> 128
"Clostridioides difficile PCR ribotype 010 isolate #49 (European region: West, country: France, isolate source: Human, ribotype: 010)",0.03,1,8,0.5,< 0.001,4,1,< 0.03,> 128
"Clostridioides difficile PCR ribotype 010 isolate #50 (European region: West, country: France, isolate source: Human, ribotype: 010)",0.125,0.5,8,0.5,< 0.001,4,1,< 0.03,> 128
"Clostridioides difficile PCR ribotype 010 isolate #51 (European region: West, country: France, isolate source: Human, ribotype: 010)",0.03,2,2,0.5,< 0.001,4,1,< 0.03,> 128
"Clostridioides difficile PCR ribotype 010 isolate #52 (European region: West, country: France, isolate source: Human, ribotype: 010)",0.25,2,0.25,0.5,< 0.001,4,1,< 0.03,16
"Clostridioides difficile PCR ribotype 010 isolate #55 (European region: South, country: Spain, isolate source: Human, ribotype: 010)",0.06,2,8,0.5,< 0.001,4,2,< 0.03,> 128
"Clostridioides difficile PCR ribotype 010 isolate #56 (European region: West, country: Belgium, isolate source: Human, ribotype: 010)",0.03,8,< 0.125,0.5,< 0.001,2,2,0.06,> 128
"Clostridioides difficile PCR ribotype 010 isolate #296 (European region: South, country: Spain, isolate source: Animal, ribotype: 010)",0.03,0.5,2,0.5,< 0.001,4,2,0.06,< 0.125
"Clostridioides difficile PCR ribotype 011 isolate #57 (European region: East, country: Poland, isolate source: Human, ribotype: 011)",0.008,2,0.25,0.5,< 0.001,2,2,< 0.03,16
"Clostridioides difficile PCR ribotype 012 isolate #58 (European region: East, country: Poland, isolate source: Human, ribotype: 012)",0.015,2,0.25,0.5,< 0.001,2,2,< 0.03,> 128
"Clostridioides difficile PCR ribotype 012 isolate #59 (European region: North, country: UK, isolate source: Human, ribotype: 012)",0.06,8,0.25,1,> 32,4,2,0.06,> 128
"Clostridioides difficile PCR ribotype 012 isolate #60 (European region: East, country: Romania, isolate source: Human, ribotype: 012)",0.015,2,< 0.125,1,> 32,8,4,0.25,8
"Clostridioides difficile PCR ribotype 012 isolate #61 (European region: South, country: Spain, isolate source: Human, ribotype: 012)",0.03,2,< 0.125,0.5,0.002,4,4,< 0.03,> 128
"Clostridioides difficile PCR ribotype 013 isolate #62 (European region: North, country: UK, isolate source: Human, ribotype: 013)",0.004,1,< 0.125,1,< 0.001,4,4,< 0.03,0.5
"Clostridioides difficile PCR ribotype 013 isolate #63 (European region: North, country: UK, isolate source: Human, ribotype: 013)",0.004,2,< 0.125,1,< 0.001,2,2,< 0.03,16
"Clostridioides difficile PCR ribotype 013 isolate #297 (European region: West, country: Netherlands, isolate source: Animal, ribotype: 013)",0.008,2,< 0.125,0.5,< 0.001,4,0.5,< 0.03,16

# Two records drawn at random from those above, as already listed:
Test System,minimum inhibitory concentration (fidaxomicin) [µg/mL],minimum inhibitory concentration (linezolid) [µg/mL],minimum inhibitory concentration (metronidazole) [µg/mL],minimum inhibitory concentration (vancomycin) [µg/mL],minimum inhibitory concentration (rifampicin) [µg/mL],minimum inhibitory concentration (meropenem) [µg/mL],minimum inhibitory concentration (imipenem) [µg/mL],minimum inhibitory concentration (tigecycline) [µg/mL],minimum inhibitory concentration (clindamycin) [µg/mL]
"Clostridioides difficile PCR ribotype 009 isolate #295 (European region: South, country: Spain, isolate source: Animal, ribotype: 009)",0.008,2,< 0.125,0.5,< 0.001,4,1,0.06,0.25
"Clostridioides difficile PCR ribotype 009 isolate #42 (European region: West, country: France, isolate source: Human, ribotype: 009)",0.03,0.25,< 0.125,0.5,< 0.001,4,1,< 0.03,16
